# Data as given in PubChem BioAssay AID1259308 (NCATS, 2017)
# Assay: 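Genes whose loss raises luciferase production in HEK293 cells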 (primary screen)
# Cell system: human HEK293 embryonic kidney cells stably expressing firefly luciferase (HEK-CMV-Luc2-Hygro)
# Knock-down reagent: single siRNA against human genes, 0.8 pmol siRNA per well
# Duration: 72 h
# Detection: 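Luciferase light (ONE-Glo) measured on one replicate plate set and viability (CellTiter-Glo) on the other, scaled to a negative control siRNA, with robust z-scores and luciferase per cell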
# Scale: total luciferase, z-score and total luciferase, % of control: higher = more reporter protein produced
# Active means: 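Active when the median/MAD z-score for overall luciferase is greater than 3; a gene was taken forward for validation with new siRNAs if at least two of its three siRNAs passed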
# Meaning of the calls: active = raised luciferase; inactive = no rise
# The whole screen tested about 59,000 reagents; shown is an unselected part. About 1,510 of them (2.6%) were called active. 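Calls use total luciferase alone and ignore viability, so some active siRNAs may act by altering cell number.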 Reagents against one gene are numbered here. Not all columns of the deposit are shown. Reagent sequences are not shown.
Gene,reagent no.,"total luciferase, z-score","total luciferase, % of control",call
CYP4F12,1,0.0269,82.4,inactive
CYP4F12,2,-1.52,51.6,inactive
CYP4F12,3,-0.362,74.7,inactive
ARF3,1,0.0593,83.1,inactive
ARF3,2,-0.51,71.7,inactive
ARF3,3,0.58,93.4,inactive
ZKSCAN8P1,1,-1.66,48.9,inactive
ZKSCAN8P1,2,-0.302,75.9,inactive
ZKSCAN8P1,3,-1.12,59.7,inactive
BRMS1,1,-0.093,80,inactive
BRMS1,2,0.46,91,inactive
BRMS1,3,-1.13,59.4,inactive
MREG,1,0.162,85.1,inactive
MREG,2,0.264,87.1,inactive
MREG,3,-0.472,72.5,inactive
RUNX2,1,-0.97,62.6,inactive
RUNX2,2,0.921,100,inactive
RUNX2,3,-0.6,70,inactive
ANK2,1,0.531,92.4,inactive
ANK2,2,-0.751,67,inactive
ANK2,3,1.5,112,inactive

Looked up above:
ANK2 #1, call: inactive
Result for BRMS1 #1 under “total luciferase, % of control”: 80
Result of ARF3 #3 under “call”: inactive
MREG #1, total luciferase, % of control: 85.1
MREG #2, call: inactive
BRMS1 #2, call → inactive

Further entries:
Gene,reagent no.,"total luciferase, z-score","total luciferase, % of control",call
DNAH11,1,-0.397,74,inactive
DNAH11,2,-0.526,71.4,inactive
DNAH11,3,-0.141,79.1,inactive
TM2D3,1,-0.419,73.6,inactive
TM2D3,2,-1.52,51.6,inactive
TM2D3,3,-1.28,56.5,inactive
RNASE3,1,1.42,110,inactive
RNASE3,2,-0.76,66.8,inactive
RNASE3,3,0.108,84,inactive
LCE5A,1,0.968,101,inactive
LCE5A,2,4.32,168,active
LCE5A,3,-1.39,54.2,inactive
MTRF1,1,-0.953,62.9,inactive
MTRF1,2,-0.776,66.5,inactive
MTRF1,3,0.678,95.4,inactive
ZNF875,1,-0.538,71.2,inactive
ZNF875,2,-0.822,65.5,inactive
ZNF875,3,0.702,95.8,inactive
OR4F4,1,-0.0547,80.8,inactive
OR4F4,2,-0.994,62.1,inactive
OR4F4,3,0.165,85.2,inactive
TMEM215,1,-1.78,46.6,inactive
TMEM215,2,-1.76,47,inactive
TMEM215,3,-0.737,67.2,inactive
CSRP3,1,0.355,89,inactive
CSRP3,2,0.234,86.5,inactive
CSRP3,3,-0.738,67.2,inactive
OR7E85BP,1,0.957,101,inactive
OR7E85BP,2,1.4,110,inactive
OR7E85BP,3,0.627,94.4,inactive
LRRIQ4,1,-0.541,71.1,inactive
LRRIQ4,2,-0.623,69.5,inactive
LRRIQ4,3,-0.414,73.6,inactive
PSMD2,1,0.467,91.2,inactive
PSMD2,2,-0.784,66.3,inactive
PSMD2,3,-2.05,41.1,inactive
